Assay results as given in publication PMC13137973.
No constants are given. Whether binding was seen depends on the method and setting. For part of these data: In cells and extracts the contact can be indirect. Some results given as binding are weak or reduced against the parent protein; the word gives no strength.

Chains of the proteins cited; added tags and fusions are not shown. Residues count along the entry.
UniProt P20333, residues 23-461: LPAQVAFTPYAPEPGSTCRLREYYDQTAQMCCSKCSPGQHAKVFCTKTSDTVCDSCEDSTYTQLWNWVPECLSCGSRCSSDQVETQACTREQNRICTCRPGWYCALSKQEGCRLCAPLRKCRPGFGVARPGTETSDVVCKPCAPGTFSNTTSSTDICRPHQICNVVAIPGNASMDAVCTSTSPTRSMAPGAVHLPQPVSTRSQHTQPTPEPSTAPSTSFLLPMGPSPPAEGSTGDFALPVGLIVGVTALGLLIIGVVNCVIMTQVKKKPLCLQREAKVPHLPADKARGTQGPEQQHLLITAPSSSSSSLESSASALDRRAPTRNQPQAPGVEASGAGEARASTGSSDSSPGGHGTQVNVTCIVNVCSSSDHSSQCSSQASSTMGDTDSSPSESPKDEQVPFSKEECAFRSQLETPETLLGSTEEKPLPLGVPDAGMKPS

Assays:
[1] = biological target: human immunodeficiency virus 1 (HIV-1) (group M, subtype B, Isolate MN) gp120 Protein (HIV-1 (group M, subtype B, isolate MN)) (UniProt P05877); test: co-IP; recombinant gp120 (5 µg/mL) added to lysate of HEK293T cells stably expressing TNFR2, 2 h 4 °C; anti-gp120 antibody or control rabbit IgG on Protein G Dynabeads overnight; blot with anti-TNFR2; only the target purified
[2] = biological target: TNFR2 stably expressed in HEK293T cells (293T-TNFR2) (human) (UniProt P20333); test: flow cytometry on cells; gp120 on TNFR2-expressing 293T cells, alone or after pre-incubation of gp120 with VRC01; MFI; only the binder purified
[3] = biological target: CCR5 on CCR5+CD4- 293T cells (UniProt P51681); test: flow cytometry on cells; only the binder purified

Question: With “TNFR2 stably expressed in HEK293T cells (293T-TNFR2) (from UniProt P20333 23-461) (receptor)” as the substance, how does the binding [1] read?
Answer: binds

Question: What does the source list for “human immunodeficiency virus 1 (HIV-1) (group M, subtype B, Isolate MN) gp120 Protein (from UniProt P05877 30-513)”?
Answer: binding [2]: binds; binding [3]: binds
